A negative result means that nothing was seen under these conditions. For some of these results: The exact form of at least one protein or probe is not confirmed. For some of these results: Weaker means in comparison with the reference protein, sequence or condition of that experiment.
Tests used:
[1] = target: BSA (bovine) (UniProt P02769); assay: EMSA; details: negative control; LI-COR Odyssey EMSA kit 1x binding buffer (composition and pH not given), 2.5 mM DTT, 0.25% Tween-20, 1 ug poly(dI-dC) in 20 ul, 20 min at RT; 4% native PAGE in 0.5x TBE; commercial protein; label: IRDye 700
[2] = target: GST-OCT4 (human) (UniProt Q01860); assay: EMSA; details: LI-COR Odyssey EMSA kit 1x binding buffer (composition and pH not given), 2.5 mM DTT, 0.25% Tween-20, 1 ug poly(dI-dC) in 20 ul, 20 min at RT, 4% native PAGE in 0.5x TBE, recombinant protein, protein details: GST (N-terminal, pAcG2T), label: IRDye 700

By UniProt entry, the sequences of proteins in these tests, tags left out. Where a name states a change or a piece, a line headed by the entry shows the natural chain unless it says otherwise. Residues count along the entry.
UniProt P02769, 25-607: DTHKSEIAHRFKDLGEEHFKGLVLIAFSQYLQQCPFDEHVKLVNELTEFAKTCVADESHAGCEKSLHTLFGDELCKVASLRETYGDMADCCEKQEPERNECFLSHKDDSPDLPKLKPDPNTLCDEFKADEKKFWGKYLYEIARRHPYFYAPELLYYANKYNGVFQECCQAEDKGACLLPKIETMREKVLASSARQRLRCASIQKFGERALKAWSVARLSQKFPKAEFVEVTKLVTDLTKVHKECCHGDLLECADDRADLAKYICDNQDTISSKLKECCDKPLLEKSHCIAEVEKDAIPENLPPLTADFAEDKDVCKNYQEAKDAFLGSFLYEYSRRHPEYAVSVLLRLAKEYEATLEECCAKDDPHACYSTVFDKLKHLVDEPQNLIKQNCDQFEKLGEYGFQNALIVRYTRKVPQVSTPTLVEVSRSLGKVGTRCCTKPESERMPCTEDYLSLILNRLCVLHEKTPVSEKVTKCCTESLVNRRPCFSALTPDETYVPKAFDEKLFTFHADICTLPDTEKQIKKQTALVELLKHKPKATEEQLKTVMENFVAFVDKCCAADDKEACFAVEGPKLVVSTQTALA
UniProt Q01860: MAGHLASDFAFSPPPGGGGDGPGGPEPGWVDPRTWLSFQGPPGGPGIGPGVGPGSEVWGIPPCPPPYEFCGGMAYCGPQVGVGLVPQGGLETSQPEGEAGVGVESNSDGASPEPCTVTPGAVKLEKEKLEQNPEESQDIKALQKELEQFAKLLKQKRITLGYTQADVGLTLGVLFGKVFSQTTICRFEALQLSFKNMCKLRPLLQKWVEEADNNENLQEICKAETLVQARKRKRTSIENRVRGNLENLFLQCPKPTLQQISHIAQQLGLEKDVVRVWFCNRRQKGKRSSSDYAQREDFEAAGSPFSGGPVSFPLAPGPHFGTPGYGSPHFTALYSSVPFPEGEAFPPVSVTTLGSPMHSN

GCCGAATTTGCATATTTGCATGGCTG (double strand) [octamer oligonucleotide (Ig heavy chain enhancer)]
binding result [1]: no binding | binding result ([2]; OCT4 encapsulated in chitosan L-NPs (less efficient release), 30 ng per lane): binds more weakly | binding result ([2]; soluble OCT4 after 7 weeks at 4 C (activity lost on storage), 100 ng): no binding | binding result ([2]; soluble OCT4 after 7 days at RT (activity lost on storage), 250 ng): no binding

Reference: paper PMC5122344
